The test deals with CD2F1 mice, L1210 leukemia ip, survival T/C. Put plainly: NCI In Vivo Anticancer Drug Screen. Data for tumor model L1210 Leukemia (intraperitoneal) in CD2F1 (CDF1) mice. The note with it: higher T/C = longer survival. Summed up:
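Activity against a transplanted murine tumor was judged by comparing the compound group with a vehicle group. The outcome in the treated animals was divided by that in the controls.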

The mark [1] stands for this setting: T/C endpoint: median survival time, dose: 100.0 mg/kg/injection, schedule: Q01DX005 (ip), vehicle: saline.
Setting [2] is: T/C endpoint: mean survival time, dose: 200.0 mg/kg/injection, schedule: Q01DX009 (ip), vehicle: saline with Tween-80.
The mark [3] stands for this setting: T/C endpoint: mean survival time, dose: 400.0 mg/kg/injection, schedule: Q04DX003 (ip), vehicle: saline with Tween-80.
[4] abbreviates: T/C endpoint: mean survival time, dose: 100.0 mg/kg/injection, schedule: Q01DX001 (ip), vehicle: saline with Tween-80.
Where [5] appears, read: T/C endpoint: mean survival time, dose: 100.0 mg/kg/injection, schedule: Q01DX009 (ip), vehicle: saline.
[6] abbreviates: T/C endpoint: mean survival time, dose: 400.0 mg/kg/injection, schedule: Q01DX009 (ip), vehicle: saline with Tween-80.
[7] abbreviates: T/C endpoint: mean survival time, dose: 100.0 mg/kg/injection, schedule: Q01DX009 (ip), vehicle: saline with Tween-80.

The list shows only some results of the screen, not a fair sample: it gathers tests that were run many times, whatever their T/C, doses with no T/C, and many T/C values between a quarter and a half above the control. Other doses and runs of a compound stand elsewhere. T/C: endpoint of the treated group in % of that of the vehicle group. Some entries give survivors of the animals treated and no T/C: the source files T/C as zero there, which appears to mark a toxic dose or a test without result, not a measured value. Some survivor counts are full or nearly so, which does not show that the dose was tolerated: survival well below the control is almost never listed, so the zero probably covers shortened survival too. Counts of survivors are from the toxicity check (mostly the fifth day) where no day follows; animals may have died later. Schedules are NCI's codes, taken here to give the interval after Q, in days (D) or hours (H), and the number of doses after X. Some entries were tested several times; the values are given in rising order. Some molecules as drawn cover several salts, stereoisomers or complexes of the source; a dose is that of the sample tested. Where survival is the endpoint, the PubChem record calls one and a half times the control and up active, and a quarter to a half above the control has no call in these data; cut-offs in other NCI protocols can differ. Counts like (3×) give the number of equal values in this list. Some T/C values are followed by the survivors on the day toxicity was checked, most often the fifth; without a count, all were alive then.

With `CC(=O)OCC1OC(OC(C)=O)C(NC(=S)N(C)N=O)C(OC(C)=O)C1OC(C)=O` (centres undefined), the T/C (T/C endpoint: mean survival time, dose: 200.0 mg/kg/injection, schedule: Q04DX002 (ip), vehicle: distilled water + Tween-80) was 125 and 134 % of control; the T/C (T/C endpoint: mean survival time, dose: 400.0 mg/kg/injection, schedule: Q04DX002 (ip), vehicle: distilled water + Tween-80) is 131 and 132 % of control; the T/C (T/C endpoint: mean survival time, dose: 800.0 mg/kg/injection, schedule: Q04DX002 (ip), vehicle: distilled water + Tween-80) was 132 % of control [4 of 6 alive].

`CC(NNC(=S)N(C)C1CCCCC1)c1cc2ccccc2cn1` (centres undefined): the survivor count runs as follows: (T/C endpoint: median survival time, dose: 100.0 mg/kg/injection, schedule: Q01DX005 (ip), vehicle: saline with Tween-80) 0 of 6; under setting [1], 4 of 6; (T/C endpoint: median survival time, dose: 200.0 mg/kg/injection, schedule: Q01DX005 (ip), vehicle: saline with Tween-80) 0 of 6; (T/C endpoint: median survival time, dose: 200.0 mg/kg/injection, schedule: Q01DX005 (ip), vehicle: saline) 0 of 6 and 2 of 6; (T/C endpoint: median survival time, dose: 400.0 mg/kg/injection, schedule: Q01DX005 (ip), vehicle: saline) 0 of 6. Further, the T/C under setting [1] is 137 % of control.

`COc1ccc(C2(C(=O)O)CC(C)=C(C)CC2C(=O)O)cc1` (centres undefined): the survivor count is reported as 3 of 6 under setting [2] and 1 of 6 under setting [3].

For `CC1(C)N=C(N)N=C(N)N1c1ccc(OCCCCNC(=O)c2cccc(S(=O)(=O)F)c2)c(Cl)c1`, the survivor count under setting [4] is given as 0 of 6; the survivor count (T/C endpoint: mean survival time, dose: 200.0 mg/kg/injection, schedule: Q01DX001 (ip), vehicle: saline with Tween-80) is recorded as 0 of 6; the survivor count (T/C endpoint: mean survival time, dose: 400.0 mg/kg/injection, schedule: Q01DX001 (ip), vehicle: saline with Tween-80) is reported as 0 of 6.

Take `O=C1c2ccccc2C(=O)c2c1cn1c2Cc2ccccc2C1`: the T/C (T/C endpoint: median survival time, dose: 25.0 mg/kg/injection, schedule: Q01DX005 (ip), vehicle: Klucel (hydroxypropylcellulose) (HPC)) is 130 % of control. For the same molecule, the survivor count (T/C endpoint: median survival time, dose: 150.0 mg/kg/injection, schedule: Q01DX005 (ip), vehicle: other) is 1 of 6.

For `NCc1ccc(O)c(O)c1`, the T/C (T/C endpoint: mean survival time, dose: 400.0 mg/kg/injection, schedule: Q01DX009 (ip), vehicle: saline) is 125 % of control; the T/C (T/C endpoint: mean survival time, dose: 600.0 mg/kg/injection, schedule: Q01DX009 (ip), vehicle: saline) was 129 and 137 % of control; the T/C (T/C endpoint: median survival time, dose: 75.0 mg/kg/injection, schedule: Q01DX009 (ip), vehicle: saline) was 127 % of control; the T/C (T/C endpoint: median survival time, dose: 112.5 mg/kg/injection, schedule: Q03HX024 (ip), vehicle: saline) was 128 % of control (2×); the T/C (T/C endpoint: median survival time, dose: 150.0 mg/kg/injection, schedule: Q01DX009 (ip), vehicle: saline) was 130 % of control; the T/C (T/C endpoint: median survival time, dose: 225.0 mg/kg/injection, schedule: Q03HX024 (ip), vehicle: saline) is 130 % of control (2×). Further, the T/C runs as follows: (T/C endpoint: median survival time, dose: 300.0 mg/kg/injection, schedule: Q01DX009 (ip), vehicle: saline) 128 % of control; (T/C endpoint: median survival time, dose: 600.0 mg/kg/injection, schedule: Q01DX009 (ip), vehicle: saline) 142 % of control; (T/C endpoint: median survival time, dose: 800.0 mg/kg/injection, schedule: Q01DX009 (ip), vehicle: saline) 146 % of control.

Turning to `CCCCCC/C=N/[N+](C)(C)C`, the survivor count is, setting by setting: under setting [5], 0 of 3; (T/C endpoint: mean survival time, dose: 200.0 mg/kg/injection, schedule: Q01DX009 (ip), vehicle: saline) 0 of 3.

As for `CCCN(CCC)CC(=O)Nc1c(Cl)cccc1Cl`, the survivor count runs as follows: (T/C endpoint: mean survival time, dose: 200.0 mg/kg/injection, schedule: Q01DX009 (ip), vehicle: saline sonified) 3 of 6; under setting [3], 6 of 6.

As for `CCC(/C=C/C(C)C1CCC2C3CC=C4CC(O)CCC4(C)C3CCC12C)C(C)C` (centres undefined) (tested in a mixture with another compound), the survivor count was 3 of 6 (T/C endpoint: mean survival time, dose: 100.0 mg/kg/injection, schedule: Q01DX009 (ip), vehicle: other) and 1 of 6 under setting [6].

Turning to `Nc1n[nH]c2ccccc12`, the T/C (T/C endpoint: median survival time, dose: 100.0 mg/kg/injection, schedule: Q01DX009 (ip), vehicle: acid diluted with saline) was 127 and 128 % of control; the T/C (T/C endpoint: median survival time, dose: 200.0 mg/kg/injection, schedule: Q01DX009 (ip), vehicle: acid diluted with saline) was 146 % of control. For the same molecule, the survivor count (T/C endpoint: median survival time, dose: 400.0 mg/kg/injection, schedule: Q01DX009 (ip), vehicle: acid diluted with saline) was 3 of 6 and 5 of 6.

On to `CCOC(=O)/C(C#N)=C/NC(N)=O`, for which the survivor count (T/C endpoint: mean survival time, dose: 200.0 mg/kg/injection, schedule: Q01DX001 (ip), vehicle: Klucel (hydroxypropylcellulose) (HPC)) was 3 of 3.

In the case of `FC(F)(F)/C([S-])=C(/[S-])C(F)(F)F.FC(F)(F)/C([S-])=C(/[S-])C(F)(F)F.FC(F)(F)/C([S-])=C(/[S-])C(F)(F)F.FC(F)(F)/C([S-])=C(/[S-])C(F)(F)F.[Co+3].[Co+3]`, the survivor count reads like this: (T/C endpoint: mean survival time, dose: 100.0 mg/kg/injection, schedule: Q04DX003 (ip), vehicle: other) 6 of 6; (T/C endpoint: mean survival time, dose: 200.0 mg/kg/injection, schedule: Q04DX003 (ip), vehicle: other) 1 of 6; (T/C endpoint: mean survival time, dose: 400.0 mg/kg/injection, schedule: Q04DX003 (ip), vehicle: other) 0 of 6.

With `CCCCCCCCCC(=O)NC(=S)Nc1c(C)cccc1C`, the survivor count is reported as 6 of 6 under setting [4] and 3 of 6 under setting [6].

Consider `CC[C@@]1(O)C(=O)OCc2c1cc1n(c2=O)Cc2cc3c(CN(C)C)c(O)ccc3nc2-1`, for which the T/C (T/C endpoint: median survival time, dose: 10.0 mg/kg/injection, schedule: Q04DX002 (ip), vehicle: water) was 147 % of control.

Turning to `O=C1C=CC(=O)C(Sc2ccccc2)=C1`, the survivor count was 1 of 6 under setting [7], 2 of 6 under setting [2] and 2 of 6 under setting [6].

For `NC(=S)N/N=C\c1ncccc1O`, the T/C runs as follows: (T/C endpoint: mean survival time, dose: 3.13 mg/kg/injection, schedule: Q03HX024 (ip), vehicle: saline) 132 % of control; (T/C endpoint: mean survival time, dose: 6.25 mg/kg/injection, schedule: Q03HX024 (ip), vehicle: saline) 140 % of control; (T/C endpoint: mean survival time, dose: 12.5 mg/kg/injection, schedule: Q03HX024 (ip), vehicle: saline) 147 and 148 % of control. Besides, for the setting “T/C endpoint: mean survival time, dose: 50.0 mg/kg/injection, schedule: Q03HX024 (ip), vehicle: saline”, the survivor count is 3 of 6.

For the molecule `Clc1nc(Cl)n2ccncc12`, the survivor count is, setting by setting: under setting [7], 0 of 6; under setting [2], 0 of 6; under setting [6], 0 of 6.

With `COc1cccc2c1C(=O)c1c(O)c3c(c(O)c1C2=O)C[C@@](O)(/C(C)=N\NC(=O)CO)C[C@@H]3OC1CC(N)C(O)C(C)O1` (some centres undefined), the T/C is 137 % of control [5 of 6 alive] (T/C endpoint: mean survival time, dose: 5.56 mg/kg/injection, schedule: Q04DX003 (ip), vehicle: saline); 136 % of control (T/C endpoint: mean survival time, dose: 6.25 mg/kg/injection, schedule: Q01DX009 (ip), vehicle: saline); 130 % of control (T/C endpoint: mean survival time, dose: 6.25 mg/kg/injection, schedule: Q01DX009 (ip), vehicle: water); 125 % of control (T/C endpoint: mean survival time, dose: 8.0 mg/kg/injection, schedule: Q04DX003 (ip), vehicle: saline with Tween-80); 136 % of control (T/C endpoint: mean survival time, dose: 12.5 mg/kg/injection, schedule: Q04DX003 (ip), vehicle: saline); 139 % of control (T/C endpoint: mean survival time, dose: 18.7 mg/kg/injection, schedule: Q04DX003 (ip), vehicle: saline). Also, the survivor count by setting is: (T/C endpoint: mean survival time, dose: 25.0 mg/kg/injection, schedule: Q01DX009 (ip), vehicle: saline) 5 of 6; (T/C endpoint: mean survival time, dose: 25.0 mg/kg/injection, schedule: Q01DX009 (ip), vehicle: water) 0 of 6; (T/C endpoint: mean survival time, dose: 50.0 mg/kg/injection, schedule: Q01DX009 (ip), vehicle: saline) 1 of 6; under setting [5], 0 of 6; (T/C endpoint: mean survival time, dose: 100.0 mg/kg/injection, schedule: Q04DX003 (ip), vehicle: saline) 4 of 6; (T/C endpoint: mean survival time, dose: 200.0 mg/kg/injection, schedule: Q04DX003 (ip), vehicle: saline) 0 of 6. The survivor count (T/C endpoint: mean survival time, dose: 400.0 mg/kg/injection, schedule: Q04DX003 (ip), vehicle: saline) is given as 1 of 6.

The record behind these values is PubChem BioAssay AID256 (DTP/NCI, 2004).
